Among the data in PubChem BioAssay AID330 (DTP/NCI, 2004) are T/C and survivor count values, retold here.

The assay concerns P388 leukemia ip, CD2F1 mice, survival T/C. In words: NCI In Vivo Anticancer Drug Screen. Data for tumor model P388 Leukemia (intraperitoneal) in CD2F1 (CDF1) mice. The settings on record: T/C endpoint: median survival time, higher T/C = longer survival.
Where [1] appears, read: dose: 50.0 mg/kg/injection, schedule: Q01DX009 (ip), vehicle: saline.
Setting [2] is: dose: 100.0 mg/kg/injection, schedule: Q01DX009 (ip), vehicle: saline.
Setting [3] is: dose: 200.0 mg/kg/injection, schedule: Q01DX009 (ip), vehicle: saline.
[4] abbreviates: dose: 400.0 mg/kg/injection, schedule: Q01DX009 (ip), vehicle: saline.
The mark [5] stands for this setting: dose: 50.0 mg/kg/injection, schedule: Q01DX009 (ip), vehicle: saline with Tween-80.

The list shows only some results of the screen, not a fair sample: it covers a few groups of compounds. Not every dose and run of a compound is shown. T/C is the treated group as % of the vehicle group. Some doses have a count of surviving animals in place of a T/C: the source holds a T/C of zero for them, seemingly a mark for toxic or unscored doses. Some doses without a T/C left all or most animals alive at the check, yet need not have been tolerated: the source hardly ever lists a survival T/C far under the control, and the zero likely stands for such cases as well. Survivors were counted at the toxicity check, usually on the fifth day, unless a day is given; later deaths do not show. Schedule codes are those of the source, read here as Q, the interval in days (D) or hours (H), X, the number of doses. For survival time, this PubChem deposit counts one and a half times the control or more as active, and values a quarter to a half above the control carry no call in these data; other NCI protocols may use other cut-offs. Some T/C values are followed by the survivors on the day toxicity was checked, most often the fifth; without a count or a note in brackets, all were alive then. Some entries were tested several times; the results are listed from low to high. Some entries show no survivor count and are marked so; the dose need not have been tolerated.

As for `Nc1cc([As](=O)(O)O)ccc1O`, the T/C was 90 % of control (dose: 1.56 mg/kg/injection, schedule: Q01DX009 (ip), vehicle: saline); 96 % of control (dose: 3.12 mg/kg/injection, schedule: Q01DX009 (ip), vehicle: saline); 94 % of control (dose: 6.25 mg/kg/injection, schedule: Q01DX009 (ip), vehicle: saline); 93 % of control (dose: 12.5 mg/kg/injection, schedule: Q01DX009 (ip), vehicle: saline); 94 % of control (dose: 25.0 mg/kg/injection, schedule: Q01DX009 (ip), vehicle: saline); 94 % of control under setting [1]. In addition, the T/C reads like this: under setting [2], 97, 102, 104 % of control; under setting [3], 102 and 108 % of control; under setting [4], 108 and 111 % of control; (dose: 600.0 mg/kg/injection, schedule: Q01DX009 (ip), vehicle: saline) 100 and 101 % of control [5 of 6 alive].
`COP(OC)C1CCC(C)CC1` (stereo unspecified): the T/C (dose: 100.0 mg/kg/injection, schedule: Q01DX001 (ip), vehicle: saline) was 99 % of control; the T/C (dose: 200.0 mg/kg/injection, schedule: Q01DX001 (ip), vehicle: saline) is 119 % of control; the T/C (dose: 400.0 mg/kg/injection, schedule: Q01DX001 (ip), vehicle: saline) was 115 % of control.
For the molecule `O=[N+]([O-])c1cc([N+](=O)[O-])c(C=Cc2c([N+](=O)[O-])cc([N+](=O)[O-])c(O)c2[N+](=O)[O-])c([N+](=O)[O-])c1`, the survivor count under setting [2] was 2 of 6, the survivor count under setting [3] is on record as 0 of 6 and the survivor count under setting [4] was 0 of 6.
Regarding `CCN(CC)CC#CCOC(=O)C(O)(c1ccccc1)c1cccs1` (stereo unspecified), the T/C (dose: 60.0 mg/kg/injection, schedule: Q01DX005 (ip), vehicle: Klucel (hydroxypropylcellulose) (HPC)) was 98 % of control.
As to `C/C(N)=N/P(=O)(Oc1ccccc1)Oc1ccccc1`, the T/C runs as follows: (dose: 6.25 mg/kg/injection, schedule: Q01DX009 (ip), vehicle: distilled water + Tween-80) 97 % of control; (dose: 6.25 mg/kg/injection, schedule: Q01DX009 (ip), vehicle: water) 102 % of control; (dose: 12.5 mg/kg/injection, schedule: Q01DX009 (ip), vehicle: distilled water + Tween-80) 96 and 101 % of control; (dose: 12.5 mg/kg/injection, schedule: Q01DX009 (ip), vehicle: water) 100 % of control; (dose: 25.0 mg/kg/injection, schedule: Q01DX009 (ip), vehicle: distilled water + Tween-80) 104 and 120 % of control; (dose: 25.0 mg/kg/injection, schedule: Q01DX009 (ip), vehicle: water) 105 % of control. For the same molecule, the T/C is 104 and 111 % of control (dose: 50.0 mg/kg/injection, schedule: Q01DX009 (ip), vehicle: distilled water + Tween-80); 105 % of control (dose: 50.0 mg/kg/injection, schedule: Q01DX009 (ip), vehicle: water); 99 % of control (dose: 100.0 mg/kg/injection, schedule: Q01DX009 (ip), vehicle: distilled water + Tween-80).
As to `CC12CCC3(C)OCC(COC(=O)C(O)(c4ccccc4)C4CCCCC4)(CO1)N23` (stereo unspecified), the T/C runs as follows: under setting [5], 105 % of control; (dose: 100.0 mg/kg/injection, schedule: Q01DX009 (ip), vehicle: saline with Tween-80) 100 % of control; (dose: 200.0 mg/kg/injection, schedule: Q01DX009 (ip), vehicle: saline with Tween-80) 122 % of control.
Consider `O=[N+]([O-])c1cc([N+](=O)[O-])c2nonc2c1O`, for which the T/C runs as follows: (dose: 50.0 mg/kg/injection, schedule: Q01DX005 (ip), vehicle: saline) 100 % of control; (dose: 100.0 mg/kg/injection, schedule: Q01DX005 (ip), vehicle: saline) 97 % of control. Moreover, where the note is “dose: 200.0 mg/kg/injection, schedule: Q01DX005 (ip), vehicle: saline”, the survivor count is on record as 5 of 5.
Regarding `BrCCN(CCBr)c1ccc(-c2ccccc2)cc1`, the T/C by setting is: (dose: 100.0 mg/kg/injection, schedule: Q01DX001 (ip), vehicle: Klucel (hydroxypropylcellulose) (HPC)) 124 % of control; (dose: 200.0 mg/kg/injection, schedule: Q01DX001 (ip), vehicle: Klucel (hydroxypropylcellulose) (HPC)) 154 % of control; (dose: 400.0 mg/kg/injection, schedule: Q01DX001 (ip), vehicle: Klucel (hydroxypropylcellulose) (HPC)) 165 % of control.
With `COc1ccc2nccc(/C=C\c3ccccc3)c2c1.O=[N+]([O-])c1cc([N+](=O)[O-])c(O)c([N+](=O)[O-])c1`, the T/C is 90 % of control (dose: 20.0 mg/kg/injection, schedule: Q01DX009 (ip), vehicle: saline with Tween-80) and 91 % of control (dose: 80.0 mg/kg/injection, schedule: Q01DX009 (ip), vehicle: saline with Tween-80). Further, the survivor count (dose: 40.0 mg/kg/injection, schedule: Q01DX009 (ip), vehicle: saline with Tween-80) is 5 of 6.
Consider `S=P1(Cl)Oc2ccccc2-c2ccccc2O1`, for which the T/C was 95 % of control (dose: 50.0 mg/kg/injection, schedule: Q04DX003 (ip), vehicle: saline with Tween-80); 100 % of control (dose: 100.0 mg/kg/injection, schedule: Q04DX003 (ip), vehicle: saline with Tween-80); 100 % of control (dose: 200.0 mg/kg/injection, schedule: Q04DX003 (ip), vehicle: saline with Tween-80).
`O=[N+]([O-])c1cc([N+](=O)[O-])c(O)c([N+](=O)[O-])c1.OCCN1CCOc2cc3nc4ccccc4nc3cc21`: the T/C by setting is: under setting [1], 98 % of control [survivor count not shown]; under setting [2], 100 % of control [survivor count not shown]; under setting [3], 96 % of control [survivor count not shown].
For `N=C(N[N+](=O)[O-])N(CCN1CCN=C1N[N+](=O)[O-])N=O`, the T/C runs as follows: (dose: 50.0 mg/kg/injection, schedule: Q01DX009 (ip), vehicle: saline sonified) 100 % of control; (dose: 50.0 mg/kg/injection, schedule: Q04DX003 (ip), vehicle: Klucel (hydroxypropylcellulose) (HPC)) 100 % of control; (dose: 100.0 mg/kg/injection, schedule: Q01DX009 (ip), vehicle: saline sonified) 100 % of control; (dose: 100.0 mg/kg/injection, schedule: Q04DX003 (ip), vehicle: Klucel (hydroxypropylcellulose) (HPC)) 100 % of control; (dose: 200.0 mg/kg/injection, schedule: Q01DX009 (ip), vehicle: saline sonified) 109 % of control; (dose: 200.0 mg/kg/injection, schedule: Q04DX003 (ip), vehicle: Klucel (hydroxypropylcellulose) (HPC)) 90 % of control.
As to `CC1(CCl)COP(=O)(n2ccnc2)OC1` (stereo unspecified), the T/C reads like this: (dose: 60.0 mg/kg/injection, schedule: Q01DX005 (ip), vehicle: saline) 101 % of control; (dose: 120.0 mg/kg/injection, schedule: Q01DX005 (ip), vehicle: saline) 103 % of control; (dose: 240.0 mg/kg/injection, schedule: Q01DX005 (ip), vehicle: saline) 100 % of control.
With `CC(C)OP(C)(=O)O.[Er]`, the T/C (dose: 12.5 mg/kg/injection, schedule: Q01DX009 (ip), vehicle: saline with Tween-80) is 100 % of control [survivor count not shown]; the T/C (dose: 25.0 mg/kg/injection, schedule: Q01DX009 (ip), vehicle: saline with Tween-80) is 96 % of control [survivor count not shown]; the T/C under setting [5] was 87 % of control [survivor count not shown].
